Laboratory results taken from article PMC7862700.
This is a selection; strong and weak results do not stand in their true shares. At the low end of the ranking, values are background and their order means little.

Amino acid sequences for entries named in this document (tags omitted). A change or cut given only in a name is not applied to a line headed by its entry.
UniProt P41161: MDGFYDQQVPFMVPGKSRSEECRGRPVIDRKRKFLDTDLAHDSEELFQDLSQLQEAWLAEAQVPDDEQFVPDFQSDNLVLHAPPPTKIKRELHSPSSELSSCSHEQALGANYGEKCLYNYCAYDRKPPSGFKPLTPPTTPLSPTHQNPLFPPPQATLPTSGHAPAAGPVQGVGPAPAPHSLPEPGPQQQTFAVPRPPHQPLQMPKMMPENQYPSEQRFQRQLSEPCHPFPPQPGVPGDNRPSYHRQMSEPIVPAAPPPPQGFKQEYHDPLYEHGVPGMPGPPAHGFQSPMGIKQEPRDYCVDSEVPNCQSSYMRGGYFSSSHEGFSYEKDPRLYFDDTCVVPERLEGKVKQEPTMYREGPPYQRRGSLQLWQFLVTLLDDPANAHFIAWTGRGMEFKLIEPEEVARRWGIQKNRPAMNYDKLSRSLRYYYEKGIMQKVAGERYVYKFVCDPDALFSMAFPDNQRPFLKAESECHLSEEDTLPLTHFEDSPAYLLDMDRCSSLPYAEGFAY

What follows are sequences tested against ETV5 (UniProt P41161) (assay: DAPPL (digital affinity profiling via proximity ligation, sequencing)). Conditions: 10 mM Tris-HCl pH 7.5, 50 mM NaCl, 1 mM DTT, 4% glycerol, room temperature, 30 min; GST-TFs on glutathione beads, 16-mer random dsDNA library, 0.1% …; high values mean tight binding; double strand, one strand shown; scale: fold enrichment (6-mer frequency, TF over GST control).
For AGCCTA, the binding signal was 1.09.
With GTCTCC the binding signal was 1.46.
ATCGAC was tested, and the binding signal was 1.25.
ACTCTG showed a binding signal of 1.27.
AAATAG was tested, and the binding signal was 1.2.
For AGCTAT, the binding signal was 1.16.
For CTATTT, the binding signal was 1.64.
In the case of CCTTAG, the binding signal is reported as 1.18.
CGAATT was tested, and the binding signal was 1.21.
For TGATTC, the binding signal was 1.1.
ACCCCT was tested, and the binding signal was 0.972.
ACTGCA showed a binding signal of 1.2.
Work on CAACTA yielded a binding signal of 1.26.
In the case of GTCCCG, the binding signal is reported as 1.19.
ACTCCA gave a binding signal of 1.24.
Sequence ACACCC has a binding signal of 1.08.
Work on GCTCAT yielded a binding signal of 1.19.
Sequence CTACCT has a binding signal of 1.36.
For AATATC, the binding signal was 1.53.
For CTAACC, the binding signal was 1.19.
Work on GTAATC yielded a binding signal of 1.22.
ATATTT showed a binding signal of 1.54.
CTTGAA was tested, and the binding signal was 1.09.
For TCACTG, the binding signal was 1.15.
AATCTG showed a binding signal of 1.4.
Sequence TCCACG has a binding signal of 1.04.
Sequence ACTCAT has a binding signal of 1.32.
Work on TATATC yielded a binding signal of 1.6.
In the case of GTTGCT, the binding signal is reported as 1.28.
Sequence AAAACG has a binding signal of 1.29.
With TTATAT the binding signal was 1.26.
Work on AAACGC yielded a binding signal of 1.28.
With ATAGTT the binding signal was 1.25.
For ATGATG, the binding signal was 1.33.
Sequence ACGCAC has a binding signal of 1.09.
For CTTGCT, the binding signal was 1.39.
TAGTTA gave a binding signal of 1.19.
For CTCCCT, the binding signal was 1.73.
Work on GAAATT yielded a binding signal of 1.36.
In the case of GCTAGT, the binding signal is reported as 0.995.
